Data on two substances can be found in publication doi:10.1101/539015.

Protein sequences, listed by entry. Tags and fused reporters are not part of them.
UniProt P90916: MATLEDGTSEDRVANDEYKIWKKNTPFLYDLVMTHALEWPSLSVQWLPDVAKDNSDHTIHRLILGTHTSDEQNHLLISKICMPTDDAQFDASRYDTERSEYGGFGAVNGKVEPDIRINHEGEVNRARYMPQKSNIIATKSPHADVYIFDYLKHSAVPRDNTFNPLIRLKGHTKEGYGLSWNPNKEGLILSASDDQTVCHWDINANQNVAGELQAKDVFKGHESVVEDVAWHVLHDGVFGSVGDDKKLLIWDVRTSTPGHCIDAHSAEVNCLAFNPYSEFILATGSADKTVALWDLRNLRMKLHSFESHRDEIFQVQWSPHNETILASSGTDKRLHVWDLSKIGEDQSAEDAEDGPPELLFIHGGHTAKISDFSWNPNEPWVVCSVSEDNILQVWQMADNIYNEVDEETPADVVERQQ
UniProt O17695: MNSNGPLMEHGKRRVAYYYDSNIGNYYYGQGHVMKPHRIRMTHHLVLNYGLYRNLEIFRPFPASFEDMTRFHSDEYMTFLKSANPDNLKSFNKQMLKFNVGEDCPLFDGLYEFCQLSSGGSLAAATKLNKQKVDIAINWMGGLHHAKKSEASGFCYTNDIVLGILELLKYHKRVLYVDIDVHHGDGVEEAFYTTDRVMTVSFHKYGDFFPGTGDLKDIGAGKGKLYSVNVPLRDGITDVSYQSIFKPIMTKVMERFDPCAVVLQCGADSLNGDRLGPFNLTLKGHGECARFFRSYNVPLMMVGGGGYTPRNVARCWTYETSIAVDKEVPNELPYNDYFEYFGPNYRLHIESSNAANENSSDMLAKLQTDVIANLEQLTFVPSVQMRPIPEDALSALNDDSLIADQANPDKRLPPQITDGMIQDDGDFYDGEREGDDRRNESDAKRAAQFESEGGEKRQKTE
UniProt G5EBZ4: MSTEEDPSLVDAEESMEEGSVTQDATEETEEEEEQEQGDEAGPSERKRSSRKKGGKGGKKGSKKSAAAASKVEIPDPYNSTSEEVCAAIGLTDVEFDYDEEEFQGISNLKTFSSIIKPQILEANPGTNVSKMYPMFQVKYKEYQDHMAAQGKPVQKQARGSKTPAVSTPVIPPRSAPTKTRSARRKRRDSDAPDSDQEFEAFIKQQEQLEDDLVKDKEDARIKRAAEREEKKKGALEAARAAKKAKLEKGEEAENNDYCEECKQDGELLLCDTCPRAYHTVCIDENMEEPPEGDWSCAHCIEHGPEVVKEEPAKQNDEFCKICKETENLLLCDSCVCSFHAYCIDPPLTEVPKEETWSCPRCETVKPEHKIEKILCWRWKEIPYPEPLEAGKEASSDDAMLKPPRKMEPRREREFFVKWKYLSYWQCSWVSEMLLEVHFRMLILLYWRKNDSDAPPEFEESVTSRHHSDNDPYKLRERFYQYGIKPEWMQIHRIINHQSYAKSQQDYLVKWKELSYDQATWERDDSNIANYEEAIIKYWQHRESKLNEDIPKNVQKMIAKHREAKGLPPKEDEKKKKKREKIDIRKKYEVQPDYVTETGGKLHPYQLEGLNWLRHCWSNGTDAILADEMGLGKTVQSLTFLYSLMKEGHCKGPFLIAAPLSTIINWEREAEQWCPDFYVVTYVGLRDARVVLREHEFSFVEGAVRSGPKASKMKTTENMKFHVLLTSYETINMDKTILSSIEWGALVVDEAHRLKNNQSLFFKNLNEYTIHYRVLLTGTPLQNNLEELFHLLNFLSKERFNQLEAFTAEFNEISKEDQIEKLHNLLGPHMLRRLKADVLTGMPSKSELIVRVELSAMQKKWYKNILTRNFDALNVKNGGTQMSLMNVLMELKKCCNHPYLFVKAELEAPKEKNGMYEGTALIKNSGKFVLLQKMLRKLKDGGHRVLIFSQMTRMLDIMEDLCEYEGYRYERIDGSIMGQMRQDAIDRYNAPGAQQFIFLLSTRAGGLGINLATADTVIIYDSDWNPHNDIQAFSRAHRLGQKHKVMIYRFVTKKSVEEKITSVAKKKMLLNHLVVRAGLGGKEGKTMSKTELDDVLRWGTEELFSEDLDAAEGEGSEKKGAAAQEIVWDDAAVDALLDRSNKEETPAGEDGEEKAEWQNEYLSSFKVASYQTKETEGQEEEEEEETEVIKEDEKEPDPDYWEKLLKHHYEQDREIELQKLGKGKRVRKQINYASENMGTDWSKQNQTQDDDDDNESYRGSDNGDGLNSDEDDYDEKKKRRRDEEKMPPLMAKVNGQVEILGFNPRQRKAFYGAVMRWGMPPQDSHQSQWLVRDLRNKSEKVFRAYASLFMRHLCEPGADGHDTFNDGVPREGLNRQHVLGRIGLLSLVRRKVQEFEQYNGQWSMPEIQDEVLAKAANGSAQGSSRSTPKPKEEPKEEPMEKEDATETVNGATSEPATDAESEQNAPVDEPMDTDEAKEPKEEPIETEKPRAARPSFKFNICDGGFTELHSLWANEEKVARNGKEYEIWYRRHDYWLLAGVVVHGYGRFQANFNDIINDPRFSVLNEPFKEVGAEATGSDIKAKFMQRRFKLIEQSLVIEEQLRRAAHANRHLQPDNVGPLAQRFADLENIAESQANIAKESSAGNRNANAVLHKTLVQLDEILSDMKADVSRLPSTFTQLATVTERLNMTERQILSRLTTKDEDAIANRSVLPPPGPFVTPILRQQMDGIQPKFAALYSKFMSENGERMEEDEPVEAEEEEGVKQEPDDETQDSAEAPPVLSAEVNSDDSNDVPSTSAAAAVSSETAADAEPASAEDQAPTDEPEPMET

The target of this assay is LIN-53 (muscle-specific, FLAG-tagged; myo-3p::lin-53::2xFLAG) (C. elegans) (UniProt P90916). The assay can be described thus: affinity purification with mass spectrometry.

No constants are given. Whether binding was seen depends on the method and setting. Binding seen in cells or lysates may run through a third protein. A yes stands for co-enrichment or nearness to the bait. Other partners may have been found.

As for HDA-1 (from UniProt O17695 1-461), the binding entry is reported as “binds”.
As to LET-418 (from UniProt G5EBZ4 1-1829), the binding entry is reported as “binds”.
